Results taken from a protein production outcome set (Wang et al. 2014).

Assay: label from the status in PepcDB records

Row | Sequence | protein production
1 | MIFQNVCRNESNFNAIASESRSQTQFGVSKSSSSGGGCISARTKDRHTKVNGRSRRVTMPALAAARIFQLTRELGHKTEGETIEWLLSQAEPSIIAATGYGTKLISNWVDVAADDSSSSSSMTSPQTQTQTPQSPSCRLDLCQPIGIQYPVNGYSHMPFTAMLLEPMTTTAESEVEIAEEEERRRRHH | failed
2 | MGKIMPVSNTKPSLQRQIKTMIRSSVQTAQKLPLRLILVVPFVLQIFTAVSLVGYLSFKNGQKAVNELADQLIVKVNGLVDQHLDSYLAAPLQINQINVDATNLGMLNLENFQTTGRYFWQQMQVFNVGYISFANLQGEFIGVERLDKGGLLINEVSQKNGIGKLYVYTTNNQGDRQQLIAVKDYDPHVEAWYADAVKAGKPVWSQIYSWEDKPEVLSISASYPINDNNNKFFGVISVDLILSQINSFLANLKVGQTGQIFILERSGMIVASSTSEAPYKVISGKAQRLSAHQSQNYLLRETTDYLQQKFGQLKNVKSYQQTVLQLQHERHFVQVRPWNDKLGLDWLVIVVVPESDFMGQINTNNRTTILLCLWALIIATAMGVYTSRWIARPIVQLTQASSAIASGNLDQEVRVSGLKELSTLATSFNQMAGQLRDSFAELEKTNQELENRVAERTAEITAAKEVADAANRAKSEFLANMSHELRTPLNGILGYAQILQLDSNTNDEQMQGLNTIYECGSHLLTLINDILDIAKIEAKKLELYPQEFDLGRLLLGVCEMCHIKVEQKGISFKYQFNDYIPSKTFADEKRIRQVLINILSNAIKFTDNGTVTFDVEVVACTGTKLITNTNQILPVHQLRFQIEDTGIGMTDEQLKKIFLPFEQVGDNLHKSEGTGLGLAISSQILELMGSDIKVESVYGKGTKFWFDLDLPIIDTGKISLSVESQKNIIGYEGKTKSILIIDSSWEKRDIFANLLSSLGFKLTEVSNLQESLDKIKAEHPDLIIADIAMPEINNLQATTMMRSQVEFAKLVIIASSASVSEYTRQQSQEAGYDDFLAKPVKVEDLFNMLQTYLSLKWIYSPNDDSSAKISSIEEIIFPPPTELVNLYQAAKAGYVVGIQEEITRIQQLDKKYTRFTVKVSELIAEFEDEAIVSMIQPHLSY | failed
3 | MAAGKTFYDILGVSKSASDKEIKSAFRKLAQKYHPDAGGDEAKFKEISEAYETLSDEKKRKEYDQMLMFGGMPGAGGAYGGGYGAGAGASGWGDIFDSIFSGNGAWGSDWGSGFAGAAGAAGAGAGRSRARKGGDLSLTVDVSAEDAFRGVTHKVTYRIPSTGEQQTITVSVPAGAVDGGKLRYKRRGEYGVAGGERGDLVVTTHVEEHPLFKRKGADVTMEVPVSVYEAALGCTVDVPTPGGATVRLKVPAGTQTGKKFRFKEMGAPDVKHRGRTGALLVEIKVQVPTNLSDDERDAMTKLREADTRDYREKVNRYKATY | failed
4 | MERTQIFDLMGELKLYGMKAAFDEIMATAVKRQHEPQRIVGDLLSAEINEKQARSIKYQLTIAKLPLAKDIADFQFDGTPINQTLVNDLAGGGFVAQQRNVVLVGGTGTGKTHLAIAIARSCIRSGARGRFFNVVDLVNRLETETRNGRQGRLAEHLTRMDFIVLDELGYLPFAQSGGQLLFHLVSRLYERASVIVTTNLAFGEWPSVFGDAKMTTALLDRLTHHCDIVETGNDSWRFKSRDDDHATRARLASAIPASSDETSATSKPRRGKGSKLDADEGSNLQAD | failed
5 | MNPYVPDKLITAGIKHMKFWRKAGDVCIWRDIFLVKTVKAHDGPVFSMHALEKGFVTGGKDGIVALWDDSFERCLKTYAIKRAALAPGSKGLLLEDNPSIRAISLGHGHILVGTKNGEILEVDKSGPITLLVQGHMEGEVWGLATHPYLPICATVSDDKTLRIWDLSPSHCMLAVRKLKKGGRCCCFSPDGKALAVGLNDGSFLMANADTLEDLVSFHHRKDMISDIRFSPGSGKYLAVASHDSFIDIYNVMSSKRVGICKGATSYITHIDWDIRGKLLQVNTGAKEQLFFEAPRGKKQTIPSVEVEKIAWASWTSVLGLCCEGIWPVIGEVTDVTASCLTSDKMVLATGDDLGFVKLFRYPTKGKFGKFKRYVAHSTHVTNVRWTYDDSMLVTLGGTDMSLMVWTNEMEGYREKRPCDSEESDIDSEEDGGYDSDVTRENEISYTIRALSTNIRPMLGIKPHLQQKEPSIDERPPVSRAPPQPEKLQTNNVGKKKRPIEDLVLELIFGYRGRDCRNNVHYLNDGDDIIYHTASVGILHNVATGSQSFYQEHNDDILCLTVNQHPKFINIVATGQVGDSADMSATAPSIHIWDAMNKQTLSILRCYHSKGVCSVSFSATGKLLLSVGLDPEHTITIWRWQEGAKIASRAGHNQRIFVAEFRPDSDTQFVSVGVKHVKFWTLAGRALLSKKGLLSTLEDARMQTMLAIAFGANNLTFTGTISGDVCVWKDHILCRIVARAHNGPVFAMYTTLRDGLIVTGGKERPSKEGGAVKLWDQELRRCRAFRLETGQATDCVRSVCRGKVFTREDFESFHHKEMINV | failed
6 | MGPRASLSRLRELCGHWLRPALHTKKQILELLVLEQFLSVLPPHLLGRLQGQPLRDGEEVVLLLEGIHREPSHAGPLDFSCNAGKSCPRADVTLEEKGCASQVPSHSPKKELPAEEPSVLGPSDEPPRPQPRAAQPAEPGQWRLPPSSKQPLSPGPQKTFQALQESSPQGPSPWPEESSRDQELAAVLECLTFEDVPENKAWPAHPLGFGSRTPDKEEFKQEEPKGAAWPTPILAESQADSPGVPGEPCAQSLGRGAAASGPGEDGSLLGSSEILEVKVAEGVPEPNPELQFICADCGVSFPQLSRLKAHQLRSHPAGRSFLCLCCGKSFGRSSILKLHMRTHTDERPHACHLCGHRFRQSSHLSKHLLTHSSEPAFLCAECGRGFQRRASLVQHLLAHAQDQKPPCAPESKAEAPPLTDVLCSHCGQSFQRRSSLKRHLRIHARDKDRRSSEGSGSRRRDSDRRPFVCSDCGKAFRRSEHLVAHRRVHTGERPFSCQACGRSFTQSSQLVSHQRVHTGEKPYACPQCGKRFVRRASLARHLLTHGGPRPHHCTQCGKSFGQTQDLARHQRSHTGEKPCRCSECGEGFSQSAHLARHQRIHTGEKPHACDTCGHRFRNSSNLARHRRSHTGERPYSCQTCGRSFRRNAHLRRHLATHAEPGQEQAEPPQECVECGKSFSRSCNLLRHLLVHTGARPYSCTQCGRSFSRNSHLLRHLRTHARETLY | not failed
7 | MSLRNDATNAAGAVGAAMRDHILLPAQEMAKLGKSAQPVLTHAEGIYVHTEDGRRLIDGPAGMWCAQVGYGRREIVDAMAHQAMVLPYASPWYMATSPAARLAEKIATLTPGDLNRIFFTTGGSTAVDSALRFSEFYNNVLGRPQKKRIIVRYDGYHGSTALTAACTGRTGNWPNFDIAQDRISFLSSPNPRHAGNRSQEAFLDDLVQEFEDRIESLGPDTIAAFLAEPILASGGVIIPPAGYHARFKAICEKHDILYISDEVVTGFGRCGEWFASEKVFGVVPDIITFAKGVTSGYVPLGGLAISEAVLARISGENAKGSWFTNGYTYSNQPVACAAALANIELMEREGIVDQAREMADYFAAALASLRDLPGVAETRSVGLVGCVQCLLDPTRADGTAEDKAFTLKIDERCFELGLIVRPLGDLCVISPPLIISRAQIDEMVAIMRQAITEVSAAHGLTAKEPAAVEGHHHHHH | not failed
8 | MPDMSQLKELPFSTLQFYATAPYPSYLPGRQARSQVAAPGHLINTGTYSQLVEQGFRRSGLFTYRPHCDNCHACVPVRVDAARFEPNRTQRRAWRSHQALRAFVAELAWSPEHYDLYTRYQQGRHPGGGMDEDSRTQYAQFLLTTRVNTRLVKFRTPQGQLAMISIIDVLDDGLSSVYTFYDPDMAGSLGTYSILWQIEQCRTLDLPWLYLGYWIADSRKMAYKANFRPLQMHVDGAWRETPPLEHHHHHH | failed
9 | MKQISSGEVWRWNKEVEMNSIRDCLKHCSSIAIDTEFPGCLKETPMDASEEIRYRDMKFNVDNTHLIQLGFTLFDRRGFAKTWEINLSDFDEHKCFKNDKSIAFLKSNGLNLDKIREEGIGIDEFFRDFSQILTEKDGKITWVNFQGSYDNAYLVKGLTGGKPLPETKEEFHETVQQLLGKFVFDVKKIAESCSGLSSQFGLQRIADVLQMKRVGKAHHAGSDSELTARVFTKLTFDLLNSRKQSVRRVDHQQFQLEQQQHQQFMMTRCYIPIPMPIPRPRPVMFAAHHQNPYFGGGYFRMPVQGMNYVL | failed
10 | MGKKKKRATEKVWCYYCDREFDDEKILVQHQKAKHFKCHVCHKKLSTASGMVIHVLQVHKENVTKVPNAKDGRDSTDIEIYGMQGIPPHVLTAHYGEEEDEPPAKVAKVEIPSAPLGGVVPRPYGMVYPPQQVPGAVPARPMYYPGPPMRHPAPVWQMPPPRPQQWYPQNPALSVPPAAHLGYRPQPLFPVQNMGMTPTPTSAPAIQPSPVTGVTPPGIPTSSPAMPVPQPLFPVVNNSIPSQAPPFSAPLPVGGAQQPSHADALGSADAYPPNNSIPGSIPSGTNAHSYASGPNTSGPSIGPPPVIANKAPSNQPNEVYLVWDDEAMSMEERRMSLPKYKVHDETSQLAIVGSEKHSMNSINAAIDRRISESRLAGRMAF | failed
